These are yes or no findings as the source states them, for the method shown. Some entries that bind do so weakly or less than the wild type.
Tests used:
[1] = target: IL-17 receptor (Met-1 through Asp-315)-Fc (human) (UniProt Q96F46); assay: BIACORE SPR, receptor-Fc immobilised on the flow cell
[2] = target: IL-17 receptor (Met-1 through Asp-315)-Fc (human) (UniProt Q96F46); assay: BIACORE SPR, IL-17R-Fc immobilised

Sequences of proteins named here, by UniProt entry; tags and fusion partners are left off. Residues count along the entry.
UniProt Q96F46, residues 33-315: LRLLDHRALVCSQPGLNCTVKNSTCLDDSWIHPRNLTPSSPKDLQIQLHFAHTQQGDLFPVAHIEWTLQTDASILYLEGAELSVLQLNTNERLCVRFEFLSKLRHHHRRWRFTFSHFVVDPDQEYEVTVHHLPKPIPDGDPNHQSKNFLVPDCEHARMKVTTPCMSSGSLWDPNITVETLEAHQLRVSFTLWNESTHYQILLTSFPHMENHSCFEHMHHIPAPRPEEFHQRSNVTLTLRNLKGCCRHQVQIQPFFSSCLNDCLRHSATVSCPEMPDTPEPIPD
UniProt Q16552, residues 20-155: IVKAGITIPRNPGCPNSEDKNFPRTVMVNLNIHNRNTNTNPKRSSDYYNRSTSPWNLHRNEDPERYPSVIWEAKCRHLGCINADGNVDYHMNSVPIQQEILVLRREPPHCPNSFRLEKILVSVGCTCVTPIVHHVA

Recombinant human IL-17 (R&D Systems) (from UniProt Q16552 20-155) (ligand)
binding [1]: binds
binding [2]: binds
